PMC11849937
These are yes or no findings as the source states them, for the method shown. In cells and extracts the contact can be indirect. Here binding means that the protein was enriched with, or labelled near, the bait; the list need not be complete.

Sequences of proteins named here, by UniProt entry; tags and fusion partners are left off.
UniProt Q8N8Y2: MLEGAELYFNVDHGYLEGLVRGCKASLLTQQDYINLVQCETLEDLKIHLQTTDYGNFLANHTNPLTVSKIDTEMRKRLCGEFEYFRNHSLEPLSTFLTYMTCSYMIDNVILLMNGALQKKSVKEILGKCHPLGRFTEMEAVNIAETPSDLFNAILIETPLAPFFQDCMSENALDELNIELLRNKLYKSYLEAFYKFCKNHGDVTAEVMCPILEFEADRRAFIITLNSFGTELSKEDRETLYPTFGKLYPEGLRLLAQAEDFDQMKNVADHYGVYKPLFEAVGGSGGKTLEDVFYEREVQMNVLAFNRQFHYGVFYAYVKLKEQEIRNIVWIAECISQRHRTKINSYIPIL
UniProt P51149: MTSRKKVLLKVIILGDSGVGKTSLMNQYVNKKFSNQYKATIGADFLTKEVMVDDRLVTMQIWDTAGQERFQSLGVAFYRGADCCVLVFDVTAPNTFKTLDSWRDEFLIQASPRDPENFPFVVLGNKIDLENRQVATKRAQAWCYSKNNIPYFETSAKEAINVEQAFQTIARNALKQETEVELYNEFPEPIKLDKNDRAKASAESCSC

Target: Flag-tagged ATP6V0D2 (ATPase H+ transporting V0 subunit d2) (UniProt Q8N8Y2)
Assay: affinity purification with mass spectrometry; proteins pulled down by FLAG-tagged ATP6V0D2 from 786O cells, mass spectrometry (Q Exactive HF)

binding: binds
Substance: RAB7 (endogenous) (from UniProt P51149 1-207)
